The experiment deals with T1, CKLF-like MARVEL transmembrane domain containing 3 (CMTM3), wild type (UniProt Q96MX0).
T1 sequence: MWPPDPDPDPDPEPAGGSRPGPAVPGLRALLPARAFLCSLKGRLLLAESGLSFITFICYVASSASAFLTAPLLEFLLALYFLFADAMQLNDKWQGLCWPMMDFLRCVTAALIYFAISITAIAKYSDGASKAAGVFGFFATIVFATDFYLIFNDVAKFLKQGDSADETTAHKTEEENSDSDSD
In words: co-IP; co-immunoprecipitation shown in supplementary figures (S3C, S4A, S4C, S4D); cells, antibodies and conditions not shown.

These are yes or no findings as the source states them, for the method shown. In cells and extracts the contact can be indirect. Some entries that bind do so weakly or less than the wild type.

These results are taken from PMC12280988.

For “peroxisome proliferator-activated receptor gamma (PPARγ), full-length (from UniProt P37231 1-505)”, the binding entry was “binds”.
